For at least one entry, the source does not settle the construct or the ends of the probe. At least one verdict was read from the data and is not stated in words by the source.

Protein sequences, listed by entry. Tags and fused reporters are not part of them. Lines headed by an entry give the natural chain unless they say otherwise; changes in a name come on top.
UniProt P48431: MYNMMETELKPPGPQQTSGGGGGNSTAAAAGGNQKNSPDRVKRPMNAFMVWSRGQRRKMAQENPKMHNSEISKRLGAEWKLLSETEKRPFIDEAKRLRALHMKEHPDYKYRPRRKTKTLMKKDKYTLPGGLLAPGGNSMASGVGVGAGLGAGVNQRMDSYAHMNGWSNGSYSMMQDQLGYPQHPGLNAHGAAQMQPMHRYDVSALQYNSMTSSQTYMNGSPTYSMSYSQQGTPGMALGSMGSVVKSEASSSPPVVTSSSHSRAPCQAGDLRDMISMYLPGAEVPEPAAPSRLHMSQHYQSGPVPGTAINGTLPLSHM

This series addresses Sox2-FL (Homo sapiens) (UniProt P48431). Description: EMSA. The following applies: 10 nM DNA; room temperature, 30 min; 5% native PAGE, 0.5x TBE, 4 °C; recombinant protein; residues 1-317; label: none (SYBR Gold stain).

For the sequence “GGCCGCTCTAGAGATATCCCCGAGGGTCGAACCATGATGCCGGATCCCCTTTGTTATGCATCTGCCGAGGCCGCTCAATTGGTCGTAGACAGCTCTAGCACCGCTTAAACGCACGTACGCGCTGTCCCCCGCGTTTTAACCGCCAAGGGGATTACTCCCTAGTCTCCAGGCACGTGTCACATATATACATCCTGTTCCAGTGCCGGTGTCGCTTGGGTCCCGAGGATATCAAG (double strand) [233-bp 601 DNA with Sox2 motif]”, the binding result is reported as “binds”.
